Consider eight substances from doi:10.1101/149047.

No constants are given. Whether binding was seen depends on the method and setting. A result given as binding can be weak or reduced; the word gives no strength.

For the assay, the target named is T1, OsNF-YB1 (rice (Oryza sativa)) (UniProt Q6Z348).
T1 sequence: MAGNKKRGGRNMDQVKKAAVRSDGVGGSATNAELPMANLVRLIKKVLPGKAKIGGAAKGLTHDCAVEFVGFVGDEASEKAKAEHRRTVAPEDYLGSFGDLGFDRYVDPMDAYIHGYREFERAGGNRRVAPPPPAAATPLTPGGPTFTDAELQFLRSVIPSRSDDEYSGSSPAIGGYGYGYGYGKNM
The assay is described as follows: two-hybrid.
For the substance OsNF-YA8 (rice (Oryza sativa)), the binding result is reported as “no binding”.

Turning to OsNF-YC11 (rice (Oryza sativa)), the binding result is listed as “binds”.

Consider OsERF72 (rice (Oryza sativa)), for which the binding result is “no binding”.

For OsNF-YC8 (rice (Oryza sativa)), the binding entry is recorded as “binds”.

Regarding OsNF-YC10 (rice (Oryza sativa)), the binding result is reported as “binds”.

For the substance OsERF74 (rice (Oryza sativa)), the binding result is “no binding”.

For the substance OsNF-YC9 (rice (Oryza sativa)), the binding entry is given as “binds”.

OsNF-YC12 (rice (Oryza sativa)): the binding entry is listed as “binds”.
